Experimental findings from patent publication US20250270283A1 are described below.

Assay [1] addresses KIR2DL2 (killer-cell immunoglobulin-like receptor), soluble recombinant. As to the kind of experiment: SPR, His-tagged KIR immobilised on Ni-NTA chip, HLA protein as analyte, 25 °C. A general note: In SPR one partner is held on a chip, and binding of the other changes the refractive index at the surface.
Assay [2] shares this target. As to the kind of experiment: SPR, His-tagged KIR immobilised on Ni-NTA chip, HLA protein as analyte, 25 °C; relative response (FIG. 24); WTC1 is the reference with the higher response.
Assay [3] has the same target. Description: SPR, His-tagged KIR2DL2 immobilised on a Ni-NTA chip, WTC1 flowed over as analyte, 25 C.

No constants are given. Whether binding was seen depends on the method and setting. Some entries that bind do so weakly or less than the wild type.

In the case of “SYNC44-L2 (from UniProt P10321 26-301) (peptide-MHC)”, the binding entry in assay [1] was “binds”.
Consider “WTC1 (RL9/HLA-C*07:02/B2M) (from UniProt P10321 25-302; P61769 21-119) (peptide-MHC)”, for which the binding result in assay [2] and in assay [3] was “binds” in each case.
